In PubChem BioAssay AID504648 (National Center for Advancing Translational Sciences (NCATS), 2011):
Out of some 390,000 compounds screened, about 610 (0.16%) were called active. Inconclusive means that the source gave no clear call. Such entries were picked first, then a sample of the others. The call rests on the fitted dose curve; in most records, active means well fitted inhibition curve with a large enough effect; inconclusive means small, poorly fitted or top-dose-only effect, or effect the other way, or another doubt; inactive means no such curve, though single readings can be large or run the other way. A potency beside an inconclusive call is a rough fit, not a confirmed value.

Experiment: Nrf2 qHTS screen for inhibitors: counterscreen for cytotoxicity
Conditions: A549 ARE-Fluc cells, CellTiter-Fluor viability, 18-24 h; activity change, negative = cytotoxicity: at 46 µM (top of the series)
Summary of the method: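 Cytotoxicity counterscreen: CellTiter-Fluor fluorescence was measured in A549 ARE_Fluc cells after 18-24 h of compound exposure in a concentration series. The subsequent BugLite luminescent read reports ARE-luciferase activity.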
On the % scale 0 is the no-effect control and ±100 the full control effect; potency means the concentration at half of the fitted maximal effect.

| SMILES | Potency | activity change, negative = cytotoxicity |
| --- | --- | --- |
| CCN1/C(=C/c2ccc3cc(C)ccc3[n+]2CC)Sc2cc(C)ccc21 | inconclusive: 23.1 µM [falling, single point] |  |
| O=C1N[C@@H](Cc2ccccc2)COC(=O)[C@@H](Cc2ccc(F)cc2)CC/C=C/C[C@H]1CC(=O)N(CCO)Cc1ccccc1 | inconclusive: 20.6 µM [falling, partial curve, poor fit] |  |
| COc1ccc(NC(=O)C(=O)NCCC2CCCCN2S(=O)(=O)c2cccs2)cc1 (configuration not stated) | inconclusive: 5.17 µM [falling, partial curve, poor fit] |  |
| O=C(c1cccn2c(=O)c3ccc(Cl)cc3nc12)N1CCN(Cc2ccc3c(c2)OCO3)CC1 |  | inactive: 1.56% |
| O=C1c2ccccc2C(=O)c2c(O)c(O)cc(O)c21 | inconclusive: 13 µM [falling, partial curve] |  |
| Cc1ccc(-c2cc(C(F)(F)F)nn2-c2ccc(S(N)(=O)=O)cc2)cc1 | inconclusive: 29.1 µM [falling, single point] |  |
| CCCC1(C(=O)O)NC(c2ccccc2O)C2C(=O)N(Cc3ccccc3)C(=O)C21 (configuration not stated) | inconclusive: 1.64 µM [activator, full curve, poor fit] |  |
| Cc1[nH]n(-c2ccccc2)c(=O)c1N=Nc1ccccc1C(=O)O | inconclusive: 10.3 µM [falling, single point] |  |
| O=C(NCCOc1nc(N2CCCCC2)nc(N2CCCCC2)n1)Nc1ccccc1 | inconclusive: 29.1 µM [falling, single point] |  |
| O=C(CCC1N=C2c3ccccc3N=C(SCc3ccc(F)cc3)N2C1=O)NC1CCCCC1 (configuration not stated) | inconclusive: 20.6 µM [falling, partial curve, poor fit] |  |
| O=C1c2ccccc2C(=O)c2c(Nc3ccc(CCO)cc3)ccc(O)c21 | inconclusive: 16.4 µM [falling, partial curve, poor fit] |  |
| CCCCc1nc2ccccc2n1CC(=O)N(COCC)c1c(C)cccc1CC | inconclusive: 23.1 µM [falling, partial curve, poor fit] |  |
| Cc1ccc(NC(=O)C2CCC(CNS(=O)(=O)c3ccc4c(c3)CCCC(=O)N4)CC2)c(C)c1 (configuration not stated) | inconclusive: 18.4 µM [activator, partial curve, poor fit] |  |
| OC[C@H]1OC(Nc2ccc(N=Nc3ccccc3)cc2)[C@@H](O)[C@@H](O)[C@@H]1O (some centres not stated) | inconclusive: 25.9 µM [falling, single point] |  |
| CC(C)c1ccc(Nc2c(-c3ccco3)nc3ccccn23)cc1 | inconclusive: 32.6 µM [falling, partial curve, poor fit] |  |
| Cc1ccc(Nc2c(-c3ccccn3)nc3ccc(C)cn23)cc1 | inconclusive: 29.1 µM [falling, single point] |  |
| Cc1ccc(N=Nc2c(N)n(-c3ccccc3)[nH]c2=O)cc1 | inconclusive: 14.6 µM [falling, partial curve, poor fit] |  |
| CN1CCN(/C=C2\SC(=S)NC2=O)CC1 | inconclusive: 5.8 µM [falling, partial curve] |  |
| CN1c2ccccc2N(C)C1c1ccc2c(c1)OCO2 |  | inactive: -14.2% |

| SMILES | Potency | activity change, negative = cytotoxicity |
| --- | --- | --- |
| COc1cc(OC)cc(-c2cc3nc(C)c(CCC(=O)NC(C)CCc4ccco4)c(C)n3n2)c1 (configuration not stated) |  | inactive: 1.08% |
| C/C(N=Nc1nc2ccccc2s1)=N\Nc1ccccc1O | inconclusive: 32.6 µM [falling, partial curve, poor fit] |  |
| Cc1ccc(CNC(=O)CSc2nc3n[nH]c(C)c3c(=N)n2-c2cccc(C)c2)cc1 | inconclusive: 18.4 µM [falling, single point] |  |
| CC(=O)c1cccc(NS(=O)(=O)c2ccc(N/C=C/C(=O)c3ccc(F)cc3)cc2)c1 | inconclusive: 32.6 µM [falling, partial curve, poor fit] |  |
| CCOC(=O)N1CCN(C(=O)c2ccccc2N(Cc2ccccc2)S(=O)(=O)c2ccc(OC)cc2)CC1 | inconclusive: 18.4 µM [falling, single point] |  |
| CCOc1ccc2nc(NC(=O)CN3CCC(n4nnc5cc(F)ccc54)CC3)sc2c1 | inconclusive: 29.1 µM [falling, single point] |  |
| COc1ccc(OCc2cc(C(=O)N(C)CCC3CCOCC3)no2)c(Cl)c1 | inconclusive: 18.4 µM [activator, partial curve, poor fit] |  |
| N=C(N)SCc1nc2ccccc2c(=O)n1-c1ccccc1 | inconclusive: 18.4 µM [falling, partial curve, poor fit] |  |
| CCN1CCN(C(c2nnnn2Cc2ccc3c(c2)OCO3)C(C)C)CC1 (configuration not stated) | inconclusive: 7.31 µM [activator, single point] |  |
| O=C(N/N=C/c1cccs1)c1n[nH]c2c1CCC2 |  | inactive: -0.493% |
| CC(=O)Nc1ccc(S(=O)(=O)Nc2cccc(-c3nc4ccccc4o3)c2)cc1 | inconclusive: 29.1 µM [falling, single point] |  |
| COc1ccc(C2c3[nH]c4ccc(OC)cc4c3CCN2C(=O)Nc2ccccc2)cc1 (configuration not stated) | inconclusive: 16.4 µM [falling, single point] |  |
| Cc1csc(=O)n1CC(=O)OCC(=O)c1c(N)n(CC(C)C)c(=O)n(C)c1=O |  | inactive: 0.216% |
| O=C1C(=Cc2ccco2)CCC1=Cc1ccco1 | inconclusive: 18.4 µM [falling, partial curve, poor fit] |  |
| Cc1ccc(-c2nnc(N3CCN(c4ccccn4)CC3)c3ccccc23)cc1 | inconclusive: 20.6 µM [falling, single point] |  |
| CCOC(=O)/C(=C/C1=CC(=C/N(C)C)/C(=O)O1)C(C)=O | inconclusive: 8.2 µM [falling, partial curve] |  |
| CCc1ccc(NC(=O)[C@H](C)NC(=O)C2CCN(C(=O)[C@@H](N)C(C)C)CC2)cc1 | inconclusive: 23.1 µM [falling, partial curve, poor fit] |  |
| CC(C)C(NC(=O)C12CC3CC(CC(C3)C1)C2)C(=O)N/N=C/C1=C(N2CCOCC2)C(=C\c2ccc([N+](=O)[O-])cc2)/CC1 (configuration not stated) | inconclusive: 5.17 µM [falling, partial curve, poor fit] |  |

Random excerpt: 2 compounds from above

| SMILES | Potency | activity change, negative = cytotoxicity |
| --- | --- | --- |
| COc1cc(OC)cc(-c2cc3nc(C)c(CCC(=O)NC(C)CCc4ccco4)c(C)n3n2)c1 (configuration not stated) |  | inactive: 1.08% |
| CN1CCN(/C=C2\SC(=S)NC2=O)CC1 | inconclusive: 5.8 µM [falling, partial curve] |  |
